Assay results from US12714721B2, “Methods of treatment of a cytokine storm” (Loma Linda University Health, priority 2020, dated 2026).
At least one compound was matched to its structure with a doubt left.

Tested on: HL60-derived neutrophils and monocytes
Assay: Cytokine stimulation with LPS and treatment with teriflunomide, mRNA expression
Assay type: cell-based, human
Conditions: LPS-stimulated HL60-derived neutrophils and monocytes

C/C(O)=C(\C#N)C(=O)Nc1ccc(C(F)(F)F)cc1 [teriflunomide]
significantly reduced: IL-6 mRNA expression | Nfat mRNA expression | Orai 2 mRNA expression | calcineurin mRNA expression
